Consider 86 sequences from the supplement of paper PMC3334620.

Whole data set: some 33,000 sequences, median “E-score (-0.5 to 0.5)” near -0.016, cut for the highest 2% near 0.3. The list shows a part of the results.

The target in this assay is T1, Yer184c (UniProt P39961).
T1 sequence: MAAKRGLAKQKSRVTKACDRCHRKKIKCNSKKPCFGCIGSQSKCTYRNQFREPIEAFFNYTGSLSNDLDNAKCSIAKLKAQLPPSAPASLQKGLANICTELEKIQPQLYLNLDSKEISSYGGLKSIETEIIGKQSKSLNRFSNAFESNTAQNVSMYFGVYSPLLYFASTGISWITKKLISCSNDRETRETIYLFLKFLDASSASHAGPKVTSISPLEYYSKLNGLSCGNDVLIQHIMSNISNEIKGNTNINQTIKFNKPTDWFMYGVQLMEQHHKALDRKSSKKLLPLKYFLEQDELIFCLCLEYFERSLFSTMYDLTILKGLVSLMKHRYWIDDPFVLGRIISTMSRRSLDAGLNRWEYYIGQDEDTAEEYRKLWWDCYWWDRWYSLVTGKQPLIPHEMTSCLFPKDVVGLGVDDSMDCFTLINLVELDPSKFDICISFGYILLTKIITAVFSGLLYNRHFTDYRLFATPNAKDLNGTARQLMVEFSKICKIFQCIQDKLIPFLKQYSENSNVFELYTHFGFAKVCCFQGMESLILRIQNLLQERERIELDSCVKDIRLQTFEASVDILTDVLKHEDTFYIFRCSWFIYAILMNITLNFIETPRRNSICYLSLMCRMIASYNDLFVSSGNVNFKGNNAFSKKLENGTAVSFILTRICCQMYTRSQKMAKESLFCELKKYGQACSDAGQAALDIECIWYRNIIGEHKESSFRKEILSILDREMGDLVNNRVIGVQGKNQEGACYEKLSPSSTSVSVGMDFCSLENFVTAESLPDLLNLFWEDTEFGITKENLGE
Put plainly: PBM E-score (8-mer binding enrichment) (E-score (-0.5 to 0.5)); higher = stronger / more preferred TF binding. To be noted: protein concentration: 100 nM; construct: GST-full length. The procedure, abridged: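 Bound GST-tagged yeast transcription factors, applied at about 100-200 nM to double-stranded universal all-10-mer Agilent arrays, were detected with fluorescent anti-GST. Scans were normalised with masliner. A modified Wilcoxon-Mann-Whitney statistic, the E-score, was assigned to each ungapped eight-base word pooled with its reverse complement by the Universal PBM Analysis Suite.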
Take ATAGACAG: the “PBM E-score” value amounted to 0.0916.

GATAGACC: the “PBM E-score” value was determined as 0.00551.

As to CACCAGGC, the “PBM E-score” value was -0.103.

For the sequence ATAAAAAC, the “PBM E-score” value turned out to be 0.305.

As for TATAAGGA, the “PBM E-score” value turned out to be 0.218.

Take TAAGTAGA: the “PBM E-score” value was 0.0987.

CACCTAAG: the “PBM E-score” value was -0.037.

In the case of ATTGAGCC, the “PBM E-score” value was 0.081.

CAGTTTGC: the “PBM E-score” value was -0.0308.

As to CATAAAGG, the “PBM E-score” value was found to be 0.102.

With CCTCCTAA, the “PBM E-score” value was -0.188.

As for CAGTCTCC, the “PBM E-score” value is -0.114.

On to ATTCACGC, for which the “PBM E-score” value was -0.0512.

For the sequence ATGATGCC, the “PBM E-score” value worked out at 0.165.

Take GACTACGA: the “PBM E-score” value was -0.105.

In the case of AACCGGGC, the “PBM E-score” value amounted to 0.187.

As to GAAGCCCA, the “PBM E-score” value was -0.221.

GATGTACC: the “PBM E-score” value is -0.0945.

CCGGTGCA: the “PBM E-score” value is 0.227.

On to AGCTGTAA, for which the “PBM E-score” value was -0.109.

As for CCGGCAGG, the “PBM E-score” value turned out to be 0.181.

Consider CTCATATC, for which the “PBM E-score” value is -0.147.

Turning to CCTTTGAG, the “PBM E-score” value was -0.211.

Regarding TATGGTCA, the “PBM E-score” value was -0.0463.

For CCCTTCAG, the “PBM E-score” value is -0.193.

As to CACCGATA, the “PBM E-score” value stood at 0.142.

On to ATCTCAGA, for which the “PBM E-score” value was -0.00425.

Take AGTTATGG: the “PBM E-score” value was -0.0312.

On to CCGATTAG, for which the “PBM E-score” value came to 0.0544.

Regarding AACATAAC, the “PBM E-score” value stood at 0.0818.

For ATCCTGGG, the “PBM E-score” value was -0.0354.

As for CCATTTAG, the “PBM E-score” value is -0.135.

On to CACCTGGA, for which the “PBM E-score” value was -0.205.

TCTTGTAA: the “PBM E-score” value amounted to 0.152.

On to CTCGGTTA, for which the “PBM E-score” value was determined as 0.173.

ACGGAAGG: the “PBM E-score” value was determined as 0.0281.

For the sequence GGTCTGAC, the “PBM E-score” value was -0.0468.

Consider CTGTCCAA, for which the “PBM E-score” value came to 0.00934.

For the sequence CGAAAGTA, the “PBM E-score” value was -0.0329.

CTTACTTC: the “PBM E-score” value came out at 0.0836.

As for CCACCCTA, the “PBM E-score” value is -0.0654.

For GGGCGCCA, the “PBM E-score” value stood at 0.00505.

With CCATTTCG, the “PBM E-score” value was -0.171.

Take GACTCGGA: the “PBM E-score” value was found to be 0.194.

As to CCTAGAGA, the “PBM E-score” value is -0.104.

With CCTACGAG, the “PBM E-score” value was -0.154.

On to TCGGCGCA, for which the “PBM E-score” value turned out to be 0.133.

Consider GCAGCTGC, for which the “PBM E-score” value is 0.19.

Take CTAGTGTA: the “PBM E-score” value is -0.0198.

AAAAACCC: the “PBM E-score” value was -0.0236.

In the case of GATGCTCC, the “PBM E-score” value was -0.0063.

Regarding CTATCAAA, the “PBM E-score” value was 0.0491.

For the sequence CTCCGGGC, the “PBM E-score” value worked out at 0.0789.

For CCCCGAGC, the “PBM E-score” value is -0.0347.

In the case of TCAAGCCA, the “PBM E-score” value was -0.0394.

As for AGATGCTG, the “PBM E-score” value is -0.219.

For the sequence GCGTGCCC, the “PBM E-score” value is -0.282.

Turning to GAAAGGTA, the “PBM E-score” value turned out to be 0.0692.

On to CTCAAAAA, for which the “PBM E-score” value turned out to be 0.0114.

As for AAACTAGG, the “PBM E-score” value is -0.105.

Take TAAGAAAA: the “PBM E-score” value worked out at 0.148.

Consider CGTTCCAA, for which the “PBM E-score” value stood at 0.0754.

On to GTTGAACA, for which the “PBM E-score” value is -0.0214.

In the case of GGTCCCCA, the “PBM E-score” value is -0.226.

For the sequence AGCCCTCA, the “PBM E-score” value was -0.107.

As to CCACAAAC, the “PBM E-score” value is 0.148.

As for GCCCGTAC, the “PBM E-score” value was -0.16.

Turning to GTTTCATA, the “PBM E-score” value is -0.0671.

On to CGCAACGA, for which the “PBM E-score” value stood at 0.0385.

For the sequence ATTTCAGA, the “PBM E-score” value was 0.0275.

As to AACTTCGG, the “PBM E-score” value was 0.287.

Turning to CAGATGCG, the “PBM E-score” value was -0.0328.

Consider TTCGGCAA, for which the “PBM E-score” value came out at 0.336.

Consider ACTCGACA, for which the “PBM E-score” value came out at 0.153.

As for CTTTATAA, the “PBM E-score” value was 0.0517.

Turning to ACTGGTAT, the “PBM E-score” value stood at 0.0101.

Consider ACCGGGTC, for which the “PBM E-score” value came to 0.0636.

Take CTACGATC: the “PBM E-score” value was -0.126.

For ACAATTGC, the “PBM E-score” value was -0.0498.

ACATTTAC: the “PBM E-score” value was -0.0135.

Take CGGCGTAG: the “PBM E-score” value was 0.021.

As to CCTAGTGA, the “PBM E-score” value is -0.0968.

On to ATTCAGAC, for which the “PBM E-score” value came out at 0.0247.

Take CTAAAGGC: the “PBM E-score” value is -0.0965.

On to GGGCATAC, for which the “PBM E-score” value is -0.129.

Consider CGTTTTTA, for which the “PBM E-score” value was found to be 0.2.
